These results are taken from paper PMC7906818.

Test [1] has as its target T1, General control of amino acid synthesis 5-like 1 (human (endogenous in HK-2)) (UniProt P78537).
T1 sequence: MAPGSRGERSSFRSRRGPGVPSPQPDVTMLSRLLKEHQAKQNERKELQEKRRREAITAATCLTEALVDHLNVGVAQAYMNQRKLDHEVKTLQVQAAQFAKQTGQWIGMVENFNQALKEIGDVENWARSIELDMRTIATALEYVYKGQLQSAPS
In words: proximity ligation; in situ PLA (Duolink) in TECs with mouse anti-GCN5L1 and anti-MnSOD antibodies; fluorescence microscopy.

Test [2] addresses T1, General control of amino acid synthesis 5-like 1 (human (endogenous in HK-2)). In words: co-IP; 1 mg cell lysate of TECs incubated with 10 ug antibody and 10 ul protein A/G resin at 4 C overnight; eluted and analysed by western blotting.

Results are given in words; binding and its absence hold for the method and conditions named. Binding seen in cells or lysates may run through a third protein. Some results given as binding are weak or reduced against the parent protein; the word gives no strength.

B1: manganese superoxide dismutase (enzyme, UniProt P04179 25-222)
chain: KHSLPDLPYDYGALEPHINAQIMQLHHSKHHAAYVNNLNVTEEKYQEALAKGDVTAQIALQPALKFNGGGHINHSIFWTNLSPNGGGEPKGELLEAIKRDFGSFDKFKEKLTAASVGVQGSGWGWLGFNKERGHLQIAACPNQDPLQGTTGLIPLLGIDVWEHAYYLQYKNVRPDYLKAIWNVINWENVTERYMACKK
Turning to B1, the binding entry in test [1] and in test [2] was “binds” each time.
